Data taken from the supplement of paper PMC12823440, “Inhibitors supercharge kinase turnover through native proteolytic circuits” (Nature, 2025).
Some of the results follow. The calls rarely recur for the same compound in another form.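 In K562 cells expressing nanoluciferase-fused kinases, luminescence was recorded at 4 h intervals between 2 and 18 h, normalized as percent of control with DMSO at 100% and a positive control at 0%. A significant (2 sigma) signal drop marks a time point as decreased. The authors' rule for a hit is not shown and takes in more than the number of time points.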

Amino acid sequences for entries named in this document (tags omitted).
UniProt P09619, whole entry: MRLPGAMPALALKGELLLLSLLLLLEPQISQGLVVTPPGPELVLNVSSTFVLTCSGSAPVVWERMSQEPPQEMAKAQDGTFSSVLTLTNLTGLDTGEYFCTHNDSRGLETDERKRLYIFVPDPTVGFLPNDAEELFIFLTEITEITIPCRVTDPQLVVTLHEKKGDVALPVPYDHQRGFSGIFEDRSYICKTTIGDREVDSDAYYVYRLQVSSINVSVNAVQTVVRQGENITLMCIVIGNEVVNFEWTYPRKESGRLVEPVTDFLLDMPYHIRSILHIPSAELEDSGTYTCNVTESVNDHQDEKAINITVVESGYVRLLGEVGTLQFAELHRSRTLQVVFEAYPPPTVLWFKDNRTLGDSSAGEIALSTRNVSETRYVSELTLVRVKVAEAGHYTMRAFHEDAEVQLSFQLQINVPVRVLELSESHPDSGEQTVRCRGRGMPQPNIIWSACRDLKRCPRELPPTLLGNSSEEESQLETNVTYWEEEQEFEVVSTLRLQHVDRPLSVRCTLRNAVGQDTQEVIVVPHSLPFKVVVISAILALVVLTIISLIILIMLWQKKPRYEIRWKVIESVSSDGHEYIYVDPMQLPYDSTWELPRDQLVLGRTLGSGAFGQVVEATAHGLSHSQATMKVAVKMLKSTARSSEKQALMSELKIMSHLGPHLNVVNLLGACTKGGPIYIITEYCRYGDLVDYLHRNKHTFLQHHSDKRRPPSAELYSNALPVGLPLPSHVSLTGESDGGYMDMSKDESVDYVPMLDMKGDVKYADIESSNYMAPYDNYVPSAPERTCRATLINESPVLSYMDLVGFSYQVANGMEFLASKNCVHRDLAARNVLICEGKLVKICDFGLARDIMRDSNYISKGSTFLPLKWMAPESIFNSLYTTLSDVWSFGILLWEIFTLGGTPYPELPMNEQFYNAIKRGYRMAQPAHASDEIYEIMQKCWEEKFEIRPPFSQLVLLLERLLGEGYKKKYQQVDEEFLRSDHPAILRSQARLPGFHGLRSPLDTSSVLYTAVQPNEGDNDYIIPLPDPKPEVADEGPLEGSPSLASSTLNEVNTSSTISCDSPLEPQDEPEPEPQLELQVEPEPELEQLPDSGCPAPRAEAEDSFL

target: PDGFRB (UniProt P09619); experiment: number of time points (of 5) at which kinase-Nluc abundance scored as decreased, DMSO-normalised (count); higher = more persistent destabilization; conditions: K562; 2-18 h

| SMILES | number of time points |
| --- | --- |
| O=Nc1c(-c2c(O)[nH]c3cc(Br)ccc23)[nH]c2ccccc12 [GSK 3 Inhibitor IX] (2.5 µM) | 0 |
| Cn1c2cc([S+](C)[O-])sc2c2cnn(Cc3cccc(N)c3)c(=O)c21 (stereo not drawn) (2.5 µM) | 0 |
| Cc1cc(-n2c(=O)ccc3c[nH]c4nccc-4c32)ccc1F (10 µM) | 0 |
| CCCn1/c(=N/C(=O)c2cccc(C(N)=O)c2)[nH]c2ccccc21 [Takinib] (10 µM) | 0 |
| CO[C@H]1C[C@@H]2CC[C@@H](C)[C@@](O)(O2)C(=O)C(=O)N2CCCC[C@H]2C(=O)O[C@H]([C@H](C)C[C@@H]2CC[C@@H](OCCO)[C@H](OC)C2)CC(=O)[C@H](C)/C=C(\C)[C@@H](O)[C@@H](OC)C(=O)[C@H](C)C[C@H](C)/C=C/C=C/C=C/1C [Everolimus] (10 µM) | 0 |
| Cc1cccc(-c2[nH]ncc2-c2ccnc3ccccc23)n1 (10 µM) | 0 |
| CC1(N)CCN(c2cccnc2NC(=O)c2nc(-c3ncccc3C(F)(F)F)cnc2N)CC1 [Darovasertib] (10 µM) | 0 |
| COc1cc2c(cc1Nc1ncc(C(N)=O)c(Nc3c(F)cccc3C(F)(F)F)n1)CN(C)CC2 (2.5 µM) | 0 |
| COc1cc2ncnc(Nc3ccc(O)c(Br)c3)c2cc1OC (10 µM) | 0 |
| Nc1nc2c(nc(Br)n2[C@@H]2O[C@@H]3COP(=O)(O)O[C@H]3[C@H]2O)c(=O)[nH]1 [8-Bromo-cGMP (sodium)] (10 µM) | 0 |
| O=c1c2c([nH]n1-c1nc3ccccc3s1)CCCC2 (10 µM) | 0 |
| COC(=O)Nc1ccc(-c2nc(N3CCOCC3)c3cnn(C4CCN(Cc5cccnc5)CC4)c3n2)cc1 (10 µM) | 0 |
| N[C@@H]1CCCN(c2c(/C=C3\SC(=O)NC3=O)cccc2-c2ccccc2)C1 (10 µM) | 0 |
| Nc1nc(N)c2nc(-c3cccc(O)c3)c(-c3cccc(O)c3)nc2n1 (10 µM) | 0 |
| Cn1ncc(NC(=O)c2nc(-c3c(F)cccc3F)sc2N)c1N1CC[C@@H](N)[C@H](F)CC1 (10 µM) | 0 |
| C=C1C(=O)[C@@]23[C@H](O)C[C@@H]4C(C)(C)C(=O)CC[C@@]4(C)[C@@H]2CC[C@@H]1[C@H]3O [Glaucocalyxin A] (2.5 µM) | 0 |
| O=C(NCCO)c1cc(C(=O)NCCO)cc(C(=O)NCCO)c1 (10 µM) | 0 |

Entries listed so far that have a CF3 group (2):

| SMILES | number of time points |
| --- | --- |
| CC1(N)CCN(c2cccnc2NC(=O)c2nc(-c3ncccc3C(F)(F)F)cnc2N)CC1 [Darovasertib] (10 µM) | 0 |
| COc1cc2c(cc1Nc1ncc(C(N)=O)c(Nc3c(F)cccc3C(F)(F)F)n1)CN(C)CC2 (2.5 µM) | 0 |

Continued:

| SMILES | number of time points |
| --- | --- |
| CCC(=O)Nc1cccc(Oc2nc(Nc3ccc(N4CCN(C)CC4)cc3OC)ncc2Cl)c1 (10 µM) | 0 |
| Cc1nn(C)cc1-c1nc2c(N3CCN(Cc4ccc(Cl)cc4)CC3)c(Cl)cnc2[nH]1 (10 µM) | 0 |
| CC(C)Oc1ccc(F)c(-c2cnc(N)c(C(=O)Nc3cnccc3N3CCC[C@@H](C(=O)O)C3)n2)c1 (2 µM) | 0 |
| Nc1ncc(C(=O)NC2CN(C(=O)C3CC3)C2)c2ccc(-c3cccc(F)c3)nc12 (2 µM) | 0 |
| O=C(ON=C1c2ccccc2-c2nc3ccccc3nc21)c1ccco1 (2.5 µM) | 0 |
| CC(C)=CC[C@@H](O)C1=CC(=O)c2c(O)ccc(O)c2C1=O [Shikonin] (10 µM) | 0 |
| COC(=O)Nc1ccc(-c2nc(N3CCOCC3)c3cnn(C4CCN(C(=O)OC)CC4)c3n2)cc1 (10 µM) | 0 |
| CNC(=O)c1ccc2c(c1)ncn2-c1ccc(CC(=O)OC(C)(C)C)cc1 (10 µM) | 0 |
| O=C1CC[C@H](NC(=O)Cc2ccccc2)C(=O)N1 [Antineoplaston A10] (10 µM) | 0 |
| COCCOCCc1c(C)c2cc(OC)c(O)c(C=O)c2oc1=O (10 µM) | 0 |
| Cc1ccc(C(=O)NC2CC2)cc1-n1ncc(C(=O)c2cccc(C#N)c2)c1N [Acumapimod] (10 µM) | 0 |
| O=C(NCCN1CCOCC1)Nc1nc2ccc(Sc3nnc4ccc(-c5ccc(F)cc5)nn34)cc2s1 (10 µM) | 0 |
| COc1cc(F)ccc1-c1ncnc(Nc2cccc(C[S@](C)(=N)=O)c2)n1 [Atuveciclib] (2.5 µM) | 2 |
| CCn1c(-c2nonc2N)nc2c(C#CC(C)(C)O)ncc(OC[C@H]3CCCNC3)c21 (10 µM) | 0 |
| O=c1[nH]ccc2nc(-c3ccc(CN4CCC(c5nc(-c6ccccn6)n[nH]5)CC4)cc3)c(-c3ccccc3)cc12 (10 µM) | 0 |
| COCCOc1ccc2c(c1)ncn2-c1ccc2cccc(N3CCC(N)CC3)c2n1 (10 µM) | 2 |
